{"source": "the supplement of paper PMC10338343", "note": "± gives the standard deviation. Only a part is listed here, and it is no random draw. The uncertainty is large for many entries.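 Further: 1 nM active piRISC with 0.1 nM target library at 33 °C single turnover.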"}
{"test_system": "MILI (PIWIL2) piRISC loaded with L1MC piRNA (26 nt)", "assay": "pre-steady-state target cleavage rate (min^-1); higher = faster piRNA-guided slicing of the target", "details": "guide: L1MC piRNA 5'p-UAACUAAAUACUAUGCAAGCUGUAGG; auxiliary factor: 500 nM mouse GTSF1", "summary_of_the_method": "(§1)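 Active affinity-purified piRISC carrying one synthetic guide (1 nM) was mixed with a transcribed, DNA-blocked target RNA library […] in HEPES–potassium acetate buffer at 33 °C for 0–8 or 0–960 min, with or without 500 nM GTSF1 partner protein. Uncleaved targets were then sequenced and normalised to depth and to weakly complementary targets. Three trials were pooled, and k3 was capped at 0.0001 min^-1. A burst-and-steady-state fit was applied to obtain the pre-steady-state cleavage rate.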"}
{"sequence": "UCCUGCUACAGCUUGCAUAGUAUUUCAGUUA", "pre-steady-state target cleavage rate": "0.335 ± 0.075"}
{"sequence": "UCCUGGAUGUCGAACGUAAGUAUAAAGUUA", "pre-steady-state target cleavage rate": "0.00018 ± 0.028"}
{"sequence": "UCCUCCUACAGCCUGCAUAGUAUUUAGUUA", "pre-steady-state target cleavage rate": "0.287 ± 0.018"}
{"sequence": "UCCUGGAUGUCGAACGUUAGUAUUUAUUA", "pre-steady-state target cleavage rate": "0.000101 ± 0.059"}
{"sequence": "UCCUGCUACAGCUUGCAUAGUAUAUUAGUUA", "pre-steady-state target cleavage rate": "0.389 ± 0.042"}
{"sequence": "UCCUGGUACAGCUUGCAUAGUAUUUAGUUC [g2:g24:cont:t1C]", "pre-steady-state target cleavage rate": "0.3 ± 0.016"}
{"sequence": "UCCUGGAUGUCGAACGUAAGUAUUUACUAA", "pre-steady-state target cleavage rate": "0.000166 ± 0.04"}
{"sequence": "UCCUGCAACAGCUUGCAUAGUAUAUAGUUA", "pre-steady-state target cleavage rate": "0.36 ± 0.038"}
{"sequence": "UCCUGGAUGUCGAACGUAUGUAUUUAUUUA", "pre-steady-state target cleavage rate": "< 0.0001"}
{"test_system": "MILI (PIWIL2) piRISC loaded with L1MC piRNA (26 nt)", "assay": "pre-steady-state target cleavage rate (min^-1); MIWI and MILI are mouse PIWI proteins and EfPiwi is from a freshwater sponge; tags in brackets are library labels; higher = faster piRNA-guided slicing of the target", "details": "guide: L1MC piRNA 5'p-UAACUAAAUACUAUGCAAGCUGUAGG; auxiliary factor: none (no GTSF1)", "summary_of_the_method": "as §1"}
{"sequence": "UCCUGGUACAGCUUGCAUAGAAUUUAGAAA", "pre-steady-state target cleavage rate": "0.00193 ± 0.0049"}
{"sequence": "UCCUGGAUGUCGAACGUAUCUAAUUAGUUA", "pre-steady-state target cleavage rate": "< 0.0001"}
{"sequence": "UCCUGCUACAGCUUGCUUAGUAUUUUGUUA", "pre-steady-state target cleavage rate": "0.00199 ± 0.0029"}
{"sequence": "UCCUCCUACAGCUUGCAUAGAAUUAAGUUA", "pre-steady-state target cleavage rate": "0.00126 ± 0.0046"}
{"sequence": "UCCUGGAUGUCGUUGGAUAGUAUUUUGUUA", "pre-steady-state target cleavage rate": "0.000396 ± 0.015"}
{"sequence": "UCCUGGAUGUCGAACCAUUGUAUUUUGUUA", "pre-steady-state target cleavage rate": "0.000483 ± 0.0093"}
{"sequence": "UCCUGGAUGUCGAACCAUAGUAUUUGAGUUA", "pre-steady-state target cleavage rate": "0.000151 ± 0.023"}
{"sequence": "UCCUCCUAGUGCUUGCAUAGUAUUUAGAAA", "pre-steady-state target cleavage rate": "0.00068 ± 0.0063"}
{"sequence": "UCCUGGAUGUCGAACGUAUCUAAUAAGUUA", "pre-steady-state target cleavage rate": "0.000225 ± 0.015"}
{"sequence": "UCCUGGAUGUCGAACGUAAGUAUUAAGUUA", "pre-steady-state target cleavage rate": "0.000292 ± 0.016"}
{"sequence": "UCCUGGAUGUCGAACGUAUGUAUUAUGUUA", "pre-steady-state target cleavage rate": "0.000134 ± 0.041"}
{"sequence": "UCCUGGAUGAGCUUGCAUUGUAUUUAGAAA", "pre-steady-state target cleavage rate": "0.00096 ± 0.0075"}
{"sequence": "UCCUGGAUGUCGAACGUAUCUAUUUACGUUA", "pre-steady-state target cleavage rate": "0.00033 ± 0.015"}
{"sequence": "UCCUGGAUGUCGAACGUAUGUAGUUUAGUUA", "pre-steady-state target cleavage rate": "0.000164 ± 0.04"}
{"sequence": "UCCUGGAACAGCAACCAUAGUAUUUAGAAA", "pre-steady-state target cleavage rate": "0.000721 ± 0.0078"}
{"sequence": "UCCUGGAUGUCGAACGUUAGUAAUUUAGUUA", "pre-steady-state target cleavage rate": "0.000158 ± 0.023"}
{"sequence": "UCCUGGAUGUCGAACGUUAGUUUAUAGUUA", "pre-steady-state target cleavage rate": "0.000247 ± 0.019"}
{"sequence": "UCCUGGAUGUCGAACGUAUCUCAUUUAGUUA", "pre-steady-state target cleavage rate": "0.000107 ± 0.029"}
{"sequence": "UCCUGGAUGUCGAUGCAUAGUAUUAAGUAA", "pre-steady-state target cleavage rate": "0.00109 ± 0.0048"}
{"sequence": "UCCUGGAUCAGCUUGCAUACUAUUUACUUA", "pre-steady-state target cleavage rate": "0.00103 ± 0.006"}
{"sequence": "UCCUGGAUGUCGAAGCAUACUAUUUACUUA", "pre-steady-state target cleavage rate": "0.000184 ± 0.024"}
{"sequence": "UCCUGGAUGUCGAUCGUUAGUAUUUAGUUA", "pre-steady-state target cleavage rate": "0.000644 ± 0.0069"}
{"sequence": "UCCUGGAUGUCGAAGUCAUAGUAUUUAGUUA", "pre-steady-state target cleavage rate": "0.00105 ± 0.0047"}
{"sequence": "UCCUGGAUGUCGUUGGAUAGUAUAUAGUUA", "pre-steady-state target cleavage rate": "0.000107 ± 0.062"}
{"sequence": "UCCUGGAUGUCGAACGAUAGUAUGUUAGUUA", "pre-steady-state target cleavage rate": "< 0.0001"}
{"sequence": "UCCUGCUACAGCUUGCAUAGUAAAUAGUUA", "pre-steady-state target cleavage rate": "0.00264 ± 0.0029"}
{"sequence": "UCCUGCUACAGCUUGCAUAGUAUUUAGAAA", "pre-steady-state target cleavage rate": "0.00178 ± 0.0037"}
{"sequence": "UCCUGGAUGUCGAACGUUAGUAUCUUAGUUA", "pre-steady-state target cleavage rate": "0.000206 ± 0.022"}
{"sequence": "UCCUCCUACAGCUAGCAUAGUAUUUACUUA", "pre-steady-state target cleavage rate": "0.00244 ± 0.0027"}
